These results are taken from publication PMC12809450.

This series has as its system PhiKZ nvRNAP sigma-like subunit GP68 + PhiKZ nvRNAP beta-like subunit GP123 + PhiKZ nvRNAP beta-like subunit GP71-73 + PhiKZ nvRNAP beta'-like subunit GP55 + PhiKZ nvRNAP beta'-like subunit GP74. Kind of series: cryo-EM structure (2.59 A). Conditions: 5 mM MgCl2, equimolar DNA, no RNA, 20 mM Tris-HCl pH 8.0, 5 mM MgCl2, 2.5 mM TCEP, 0.1 mg/ml nvRNAP (diluted from 200 mM NaCl TGED), 20 min at 2 C, recombinant protein.

Construct, isoform or probe ends are uncertain for at least one entry.

With “ATGAGTAATTTTAGTGAATGTATTTGCTATATTGCTATGTAGACAGTTCCCAAAAGCCTAAAGTTACAATATAGG / CCTATATTGTAACTTTAGGCTTTTGGGAACTCCTCTCATATTCCCATAGCAAATACATTCACTAAAATTACTCAT [p119L double-bubble open promoter analogue (-38 to +37)]”, the binding result is given as “binds”.
